Assay results taken from article doi:10.1101/433532.
Results are given in words; binding and its absence hold for the method and conditions named. In cells and extracts the contact can be indirect. Some entries that bind do so weakly or less than the wild type.

Protein sequences, listed by entry. Tags and fused reporters are not part of them.
UniProt Q92466: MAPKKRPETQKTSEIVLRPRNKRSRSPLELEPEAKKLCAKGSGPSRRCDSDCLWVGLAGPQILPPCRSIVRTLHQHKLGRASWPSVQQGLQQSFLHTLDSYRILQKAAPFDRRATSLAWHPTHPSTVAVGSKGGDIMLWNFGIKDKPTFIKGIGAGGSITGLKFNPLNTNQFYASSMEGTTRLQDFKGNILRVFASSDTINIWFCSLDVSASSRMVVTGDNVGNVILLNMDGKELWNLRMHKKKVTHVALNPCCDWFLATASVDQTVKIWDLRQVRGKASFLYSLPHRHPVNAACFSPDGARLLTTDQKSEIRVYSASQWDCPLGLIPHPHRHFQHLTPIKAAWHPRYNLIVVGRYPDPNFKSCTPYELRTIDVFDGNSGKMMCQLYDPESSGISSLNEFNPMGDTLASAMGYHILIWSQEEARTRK
UniProt Q16531: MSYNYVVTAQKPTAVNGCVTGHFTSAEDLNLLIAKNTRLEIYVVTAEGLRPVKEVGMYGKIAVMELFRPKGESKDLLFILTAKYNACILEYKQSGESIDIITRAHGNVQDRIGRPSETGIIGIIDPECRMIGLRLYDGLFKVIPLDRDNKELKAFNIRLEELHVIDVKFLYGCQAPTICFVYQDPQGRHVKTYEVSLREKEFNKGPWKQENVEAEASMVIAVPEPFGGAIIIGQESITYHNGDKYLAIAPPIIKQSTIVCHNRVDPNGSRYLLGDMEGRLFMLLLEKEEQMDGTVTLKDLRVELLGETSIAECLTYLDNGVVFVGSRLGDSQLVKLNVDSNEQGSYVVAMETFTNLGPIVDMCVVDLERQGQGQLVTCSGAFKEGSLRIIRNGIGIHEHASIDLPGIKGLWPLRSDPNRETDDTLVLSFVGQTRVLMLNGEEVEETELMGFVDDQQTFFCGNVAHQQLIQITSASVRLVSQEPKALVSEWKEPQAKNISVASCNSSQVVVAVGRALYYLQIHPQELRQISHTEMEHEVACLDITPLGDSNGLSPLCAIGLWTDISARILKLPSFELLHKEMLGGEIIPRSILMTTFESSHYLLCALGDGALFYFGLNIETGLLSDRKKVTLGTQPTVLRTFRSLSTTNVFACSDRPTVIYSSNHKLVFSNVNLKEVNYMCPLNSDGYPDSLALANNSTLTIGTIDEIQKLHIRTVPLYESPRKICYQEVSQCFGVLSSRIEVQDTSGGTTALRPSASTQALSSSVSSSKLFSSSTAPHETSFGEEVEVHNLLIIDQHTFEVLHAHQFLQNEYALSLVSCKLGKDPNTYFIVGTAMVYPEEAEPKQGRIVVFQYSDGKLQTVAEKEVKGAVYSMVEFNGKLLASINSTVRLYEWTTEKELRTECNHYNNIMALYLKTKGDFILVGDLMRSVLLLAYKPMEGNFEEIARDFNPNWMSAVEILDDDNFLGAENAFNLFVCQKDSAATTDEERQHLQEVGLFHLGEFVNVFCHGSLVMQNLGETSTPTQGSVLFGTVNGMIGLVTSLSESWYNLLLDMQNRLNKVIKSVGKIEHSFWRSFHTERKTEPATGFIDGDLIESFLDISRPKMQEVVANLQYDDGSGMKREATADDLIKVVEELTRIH

Target: DDB2 (human (endogenous in HAP1)) (UniProt Q92466)
Test: co-IP

- binding: binds
Substance: DDB1 (from UniProt Q16531 1-1140)
